PMC4737164, “DNA recognition for virus assembly through multiple sequence-independent interactions with a helix-turn-helix motif”

By UniProt entry, the sequences of proteins in these tests, tags left out. Residues count along the entry.
UniProt P68928, 1-68: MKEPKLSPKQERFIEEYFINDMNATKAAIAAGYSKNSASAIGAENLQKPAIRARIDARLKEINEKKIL

Molecular target: SF6 small terminase (GP1) DBD wild type (Bacillus phage SF6) (UniProt P68928)
Assay: SPR
Details: 150 mM KCl; 20 mM HEPES, 150 mM KCl (300 mM in second ReDCaT), pH 7.0, +0.05% Tween 20 for SPR; ReDCaT 20 uM protein; AUC 20 C; recombinant protein; residues 1-68; protein details: C-terminal 3C site-His tag, cleaved; label: 5'-biotin strand 3

“GGAGCATTTGACTCGCATTGCACTCGGCCA / TGGCCGAGTGCAATGCGAGTCAAATGCTCCCCTACCCTACGTCCTCCTGC / GCAGGAGGACGTAGGGTAGG [F14 (S14)]”: binds.

For at least one entry, the source does not settle the construct or the ends of the probe. At least one verdict rests on a figure or table, not on a statement of the authors.
